Data: patent US20220089741A1 (HUABO BIOPHARM SHANGHAI, published 2022)
No constants are given. Whether binding was seen depends on the method and setting. Some entries that bind do so weakly or less than the wild type.

Chains of the proteins cited; added tags and fusions are not shown. Lines headed by an entry give the natural chain unless they say otherwise; changes in a name come on top. Residues count along the entry.
UniProt Q9NZQ7: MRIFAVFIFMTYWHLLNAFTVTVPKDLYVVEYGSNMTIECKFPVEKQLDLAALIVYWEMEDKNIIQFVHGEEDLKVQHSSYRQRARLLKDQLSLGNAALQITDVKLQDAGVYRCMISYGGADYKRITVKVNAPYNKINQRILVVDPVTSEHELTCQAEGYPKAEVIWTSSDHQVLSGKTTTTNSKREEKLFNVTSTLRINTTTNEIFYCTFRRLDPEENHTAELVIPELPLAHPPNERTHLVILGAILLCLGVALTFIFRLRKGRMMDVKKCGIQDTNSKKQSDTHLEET
human PD-L1 on cells: residues 19-290 of Q9NZQ7
human PD-L1 protein (hybridoma screening): residues 19-239 of Q9NZQ7

Legend:
[1] = target: human PD-L1 protein (hybridoma screening) (human) (UniProt Q9NZQ7); experiment: ELISA, hybridoma screening
[2] = target: human PD-L1 on cells (human) (UniProt Q9NZQ7); experiment: FACS on ES-2 cells, hybridoma screening
rhPD-L1-his protein = target: T1, rhPD-L1-his protein (monkey, UniProt G7PSE7 19-238); experiment: ELISA, rhPD-L1-his coated
T1 construct: Bought protein; also called monkey PD-L1 protein; Sino Biological #90251-C08H; not shown: C-terminal His tag

Binder	binding [1]	binding [2]	binding (rhPD-L1-his protein)
36C06-D8 (antibody, V domains shown, also called hybridoma 36C06/D8; mouse monoclonal antibody against human PD-L1) VH: QVQLQQSGAELVKPGASVKLSCKASGYAFTGYTIHWVKQRSGLGLEWLGWFYPGSGTLKYNEKFKDKATLTADKSSSTVYLELSRLTSEDSAVYFCARHGTGTLMAMDYWGQGTSVTVSS VL: DVVVTQTPLSLPVSFGDQVSISCRSSQSLANSYGNTYLSWYLHKPGQSPQLLIYGISNRFSGVPDRFSGSGSGTDFTLKISTIKPEDLGMYYCLQGTHQPPTFGGGTKLEIK	binds	binds	–
chimeric antibody 900289 (antibody, V domains shown, Expressed in CHO-S cells; also called chimeric IgG1-kappa antibody; human-mouse chimeric antibody) VH: QVQLQQSGAELVKPGASVKLSCKASGYAFTGYTIHWVKQRSGLGLEWLGWFYPGSGTLKYNEKFKDKATLTADKSSSTVYLELSRLTSEDSAVYFCARHGTGTLMAMDYWGQGTSVTVSS VL: DVVVTQTPLSLPVSFGDQVSISCRSSQSLANSYGNTYLSWYLHKPGQSPQLLIYGISNRFSGVPDRFSGSGSGTDFTLKISTIKPEDLGMYYCLQGTHQPPTFGGGTKLEIK	–	–	binds
humanized antibody 900339 (antibody, V domains shown, Humanized from the chimeric antibody; Expressed in CHO-S cells; also called humanized PD-L1 monoclonal antibody) VH: QVQLVQSGAEVKKPGASVKVSCKASGYAFTGYTIHWVRQAPGQRLEWMGWFYPGSGTLKYSEKFQGRVTITRDKSLSTAYMELSSLRSEDTAVYYCARHGTGTLMAMDYWGQGTLVTVSS VL: DVVMTQTPLSLSVTPGQPASISCKSSQSLANSYGNTYLSWYLHKPGQSPQLLIYGISNRFSGVPDRFSGSGSGTDFTLKISRVEAEDVGVYYCLQGTHQPPTFGQGTKLEIK	–	–	binds
